No constants are given. Whether binding was seen depends on the method and setting. Binding seen in cells or lysates may run through a third protein. Some binding calls cover weakened binding; strength is not graded here.
Key:
[1] = biological target: HA-HuR (wild type) (UniProt Q15717); experiment: co-IP; lysates of HEK293 cells transfected with Flag-ARPC1B constructs and HA-IFI16 or HA-HuR constructs; anti-HA antibody (Fig. 5A, B); western blotting
[2] = biological target: HA-IFI16 (wild type) (UniProt Q16666); experiment: as above
[3] = biological target: Actin related protein 2/3 complex, subunit 1B (human (endogenous in GSC 267 and GSC 20)) (UniProt O15143); experiment: co-IP; endogenous reciprocal co-IP in GSC 267 and GSC 20 lysates; antibody on protein A/G magnetic beads, overnight at 4 °C, western blotting
[4] = biological target: Human antigen R (human (endogenous in GSC 267 and GSC 20)) (UniProt Q15717); experiment: co-IP; co-IP of TRIM21 with IFI16 or HuR in GSC lysates, with ARPC1B knock-down (Fig. 5D) or ARPC1B overexpression in GSC 8-11 (Fig. 5E)
[5] = biological target: γ-interferon inducible protein 16 (human (endogenous in GSC 267 and GSC 20)) (UniProt Q16666); experiment: as above

Amino acid sequences for entries named in this document (tags omitted).
UniProt Q16666: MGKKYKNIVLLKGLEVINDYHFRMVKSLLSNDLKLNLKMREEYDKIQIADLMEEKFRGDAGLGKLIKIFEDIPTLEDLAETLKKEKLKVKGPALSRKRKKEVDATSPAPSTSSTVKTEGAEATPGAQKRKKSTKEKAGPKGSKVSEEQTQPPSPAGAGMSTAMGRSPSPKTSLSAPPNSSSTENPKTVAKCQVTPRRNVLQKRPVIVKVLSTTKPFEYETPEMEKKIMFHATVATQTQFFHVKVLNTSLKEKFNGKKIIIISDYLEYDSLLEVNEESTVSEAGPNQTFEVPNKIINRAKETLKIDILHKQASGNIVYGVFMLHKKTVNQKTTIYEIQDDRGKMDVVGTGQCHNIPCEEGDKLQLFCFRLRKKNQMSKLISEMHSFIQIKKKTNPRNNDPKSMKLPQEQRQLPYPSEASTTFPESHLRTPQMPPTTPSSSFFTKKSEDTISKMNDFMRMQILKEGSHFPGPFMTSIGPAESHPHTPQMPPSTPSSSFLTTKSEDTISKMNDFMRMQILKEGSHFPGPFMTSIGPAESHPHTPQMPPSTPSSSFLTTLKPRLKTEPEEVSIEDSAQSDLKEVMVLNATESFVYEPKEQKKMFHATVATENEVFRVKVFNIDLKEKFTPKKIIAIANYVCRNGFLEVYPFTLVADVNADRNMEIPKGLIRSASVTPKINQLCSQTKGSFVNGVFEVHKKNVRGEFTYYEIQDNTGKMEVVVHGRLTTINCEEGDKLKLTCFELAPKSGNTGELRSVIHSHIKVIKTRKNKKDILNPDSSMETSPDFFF
UniProt P19474: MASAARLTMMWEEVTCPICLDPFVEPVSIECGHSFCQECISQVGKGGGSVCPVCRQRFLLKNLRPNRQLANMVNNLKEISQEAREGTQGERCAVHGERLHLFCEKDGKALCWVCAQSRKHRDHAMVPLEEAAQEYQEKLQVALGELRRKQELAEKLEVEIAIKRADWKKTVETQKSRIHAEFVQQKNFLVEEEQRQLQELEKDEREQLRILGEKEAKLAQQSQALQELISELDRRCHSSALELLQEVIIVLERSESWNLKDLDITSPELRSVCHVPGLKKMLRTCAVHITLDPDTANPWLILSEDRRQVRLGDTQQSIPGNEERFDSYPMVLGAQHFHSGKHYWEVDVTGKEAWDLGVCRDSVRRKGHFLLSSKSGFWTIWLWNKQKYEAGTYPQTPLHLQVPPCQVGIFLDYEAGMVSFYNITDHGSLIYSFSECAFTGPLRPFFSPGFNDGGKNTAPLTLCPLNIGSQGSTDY

**Q.** Which binding [1] does the source give for “Flag-ARPC1B (wild type) (from UniProt O15143 1-372)” here?
**A.** binds

**Q.** What about the binding [2] of the same substance?
**A.** binds

**Q.** Which results are given for “Flag-ARPC1B amino acid regions 1–242 (from UniProt O15143 1-242) (domain or fragment)”?
**A.** binding [1]: binds; binding [2]: binds

**Q.** For “Human antigen R (from UniProt Q15717 1-326)”, which binding [3] is on record?
**A.** binds

**Q.** Which binding [4] does the source give for “tripartite motif containing 21 (from UniProt P19474 1-475)” here?
**A.** binds

**Q.** And the binding [5]?
**A.** binds

**Q.** With “γ-interferon inducible protein 16 (from UniProt Q16666 1-785)” as the substance, how does the binding [3] read?
**A.** binds
